Over roughly 33,000 sequences, “E-score (-0.5 to 0.5)” has its median near -0.0059; the highest 2% begin near 0.26. This is one part of the list.
Biological target: T1, Cin5 (UniProt P40917)
T1 sequence: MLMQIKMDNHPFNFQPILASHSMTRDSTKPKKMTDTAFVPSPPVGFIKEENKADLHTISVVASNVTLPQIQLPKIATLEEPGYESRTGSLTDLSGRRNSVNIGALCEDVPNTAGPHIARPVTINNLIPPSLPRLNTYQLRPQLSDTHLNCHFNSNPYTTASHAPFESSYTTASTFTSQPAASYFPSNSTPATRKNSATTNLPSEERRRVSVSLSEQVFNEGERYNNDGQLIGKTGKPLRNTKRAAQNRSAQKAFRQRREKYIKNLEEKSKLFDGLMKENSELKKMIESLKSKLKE
Test: PBM E-score (8-mer binding enrichment) (E-score (-0.5 to 0.5)); higher = stronger / more preferred TF binding
Conditions: protein concentration: 100 nM; construct: GST-full length
How it was run: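 Masliner-normalised scans of fluorescent anti-GST signal were the basis for scoring. That signal came from GST-tagged yeast transcription factors applied at about 100-200 nM to double-stranded universal all-10-mer Agilent arrays on fresh or once-stripped slides. Each ungapped eight-base word, pooled with its reverse complement, received an E-score from the Universal PBM Analysis Suite.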

Sequence | PBM E-score
AAACAAAT | 0.249
GCAAAACC | -0.00578
CTGAAACC | 0.0371
AATCACAG | 0.0249
CAATTACG | 0.123
CTACCGAC | -0.0852
ATTTTGAC | 0.128
GCCCAGCC | -0.0782
AAAACGGT | -0.0934
ATTTGCGA | 0.102
CCTCCACG | -0.169
AAGGGGAG | -0.252
CGGGTAGA | -0.0977
CATCACCA | 0.11
CTGCAGTA | -0.23
TCTAAAAA | -0.11
ACCTTTTC | -0.0701
CCCGCCGC | 0.143
TGAAAGAA | 0.105
GTTTGACA | 0.0616
ACGCACGT | -0.233
ACGATAGA | -0.105
CCATGTTC | 0.034
AGATCCGG | -0.0839
GACGCGAA | -0.0353

Sequence | PBM E-score
AAAAGAAT | 0.257
TACGACAA | 0.157
CGCGTACC | -0.118
ACAGGTAT | 0.177
AGAAGATG | -0.0111
ACCACTCC | -0.0563
CTACAGTC | -0.147
AGCCTTTA | -0.11
GTGCGAAC | -0.146
ATCGCGGA | -0.0167
ACATAACG | 0.231
CCTTTATA | -0.135
CCCCGTGC | -0.0209
ATTGCAGG | 0.0963
TTTACAAA | 0.154
AGATGGTG | -0.103
ATTGAAAT | 0.212
CCGGCGCG | -0.118
ATCATCAG | 0.0722
TATGTAAA | 0.286
AGTATCAA | 0.192
CCGCTTCG | -0.181
CGGTTGGA | 0.0642
AACAAGCA | 0.082
CAACGCGA | 0.134

Sequence | PBM E-score
ACCGCGCA | 0.151
GAACGAGA | 0.0669
GTTGGCCA | -0.135
ACGGACGC | -0.0868
AAACGTCA | -0.0418
CCACTACG | -0.0976
GGTGGGCA | 0.0635
GAGACAGA | 0.12
ATTCGGTC | 0.0323
CCACGACA | -0.134
CAGGGAGG | -0.24
ACGCTGGA | -0.0784
CTGTTATC | 0.126
CGTCAACC | -0.0455
GATATTTA | 0.0135
TAGTTGCA | 0.0553
CGTGCGGC | -0.139
CAGAAGCG | 0.027
GTTTTAAA | 0.112
GCGGGTGA | -0.0997
GTGTCCAA | 0.0492
GTAATTAC | 0.175
ACCGTAGC | -0.159
GCCGCAGC | -0.133
ACCTCATG | -0.229

Sequence | PBM E-score
GGAGAATA | 0.119
CGAAGACC | 0.0315
ATCCCCGG | -0.0984
AGTCGCCA | -0.24
CTCTTAAG | -0.14
CTTTGAGC | -0.225
ATGCCCAT | -0.124
ACTGCACA | -0.0465
CATCGTCG | -0.143
GGGAAGAA | -0.0894
ACACAAGG | 0.0303
ATAGGTCG | -0.0266
ATCCTGCG | -0.149
TCCTTCCA | -0.0598
CATTATTC | 0.255
GCACCCGC | 0.0654
CTCACCGC | -0.0887
AGGGTGAT | 0.0199
CGAATCGC | -0.122
AGACAGCT | -0.00306
AGTTAATA | 0.217
CATGACCG | -0.229
CTTGAGAC | -0.158
CACGAATG | 0.137
ATAGGTAA | 0.195

Sequence | PBM E-score
ACGCCTTC | -0.164
AGACCTCT | -0.165
ACTGCACT | 0.0754
CGCAAAAC | 0.0682
ACCGGCGT | -0.144
TCGCTACA | -0.251
ATGAATGC | 0.167
CTCATAAC | 0.0387
ATGACAAT | 0.111
CGCCTCTC | -0.34
GAATGCTC | -0.106
CAGGCTGA | 0.00323
CCACCAAC | 0.097
TAAAGACA | 0.037
ACATGAAC | 0.0716
ATCACAGG | -0.127
TGCTCCAA | 0.096
CCATAGGC | -0.154
ACGAGCTG | 0.13
CTTCTGAC | -0.166
CAAGCGCA | 0.323
AATTTCTG | 0.0556
GAGCATAA | 0.237
AAATTTAA | 0.17
GTTCTGCA | 0.0289

Sequence | PBM E-score
ATACGTAG | 0.116
CCGTGCTA | -0.179
ACTCAGCC | -0.108
GTATTCAC | 0.12
TCTCGTAA | 0.25
CCCAGTCG | -0.0543
AAACGTAC | 0.0409
ATGCTACG | 0.113
ACATACGC | 0.0419
GGCGTAAC | -0.178
AAATACTT | 0.142
ATGATACA | 0.231
ACTGAATA | 0.165
AACCCGCT | -0.0823
AGAGACCA | -0.0194
AACGACTA | 0.0792
CTTAGGTA | 0.337
TCCGGCAA | 0.042
CGAGGTAA | -0.0352
TGTAAGAA | 0.194
CAATCACG | 0.0456
AATAATGG | 0.226
TAACTAGA | 0.306
GGTAGATA | 0.163
CGGTTATC | -0.0259

Sequence | PBM E-score
ATAAACAG | 0.189
CACACAAC | 0.123
ACTGCCGA | 0.0325
GCTACAGC | 0.00155
GATTGGCC | -0.135
AAACAGTT | 0.0979
GCCCCCCA | -0.466
ACTTTTCT | 0.0353
ATGCTGCA | -0.0271
AAGACTCA | -0.275
AGTTGCAA | 0.0466
ACGCACTC | -0.0778
AAACTTGA | 0.182
AGTAGCAT | -0.0338
AAGAGCCT | -0.193
ATGCTAAG | 0.0394
AACGTGTG | -0.144
CTCCAATC | 0.00472
GCCCAACC | 0.0496
CAGACACG | -0.137
ATATTGTC | 0.23
TCTTAAGA | -0.0736

Not a retest: an excerpt of the list.
Sequence | PBM E-score
ATGCTACG | 0.113
ACATACGC | 0.0419
GGCGTAAC | -0.178
AAATACTT | 0.142
ATGATACA | 0.231
ACTGAATA | 0.165
AACCCGCT | -0.0823
AGAGACCA | -0.0194
AACGACTA | 0.0792
CTTAGGTA | 0.337
TCCGGCAA | 0.042
CGAGGTAA | -0.0352
TGTAAGAA | 0.194
CAATCACG | 0.0456
AATAATGG | 0.226
TAACTAGA | 0.306
GGTAGATA | 0.163
CGGTTATC | -0.0259
ATAAACAG | 0.189
CACACAAC | 0.123
ACTGCCGA | 0.0325
GCTACAGC | 0.00155
GATTGGCC | -0.135
AAACAGTT | 0.0979
GCCCCCCA | -0.466
ACTTTTCT | 0.0353
ATGCTGCA | -0.0271
AAGACTCA | -0.275
AGTTGCAA | 0.0466
ACGCACTC | -0.0778
AAACTTGA | 0.182
AGTAGCAT | -0.0338
AAGAGCCT | -0.193
ATGCTAAG | 0.0394
AACGTGTG | -0.144
CTCCAATC | 0.00472
GCCCAACC | 0.0496

Source: the supplement of paper PMC3334620
